Test results from paper PMC4366279 (PLoS ONE, 2015).
Numbering of substitutions follows the chain as printed. No constants are given. Whether binding was seen depends on the method and setting. Binding seen in cells or lysates may run through a third protein. Some binding calls cover weakened binding; strength is not graded here.

Tests used:
Assay in all cases: pull-down; His6-TbREL1 TNT mixture mixed with an equal volume of untagged KREPA2 TNT mixture, captured on magnetic His-tag isolation beads (Dynabeads); binding buffer 50 mM NaPO4 pH 8.0, 300 mM NaCl, 0.01% Tween 20; 20-30 min at 4°C; three washes; [35S]-methionine-labelled proteins on 10% SDS-PAGE, PhosphorImager; KREPA2-only control for background
[1] = target: T1, TbREL1 K166A (Trypanosoma brucei) (UniProt P86926)
T1 sequence (chain, [35S]-methionine labelled): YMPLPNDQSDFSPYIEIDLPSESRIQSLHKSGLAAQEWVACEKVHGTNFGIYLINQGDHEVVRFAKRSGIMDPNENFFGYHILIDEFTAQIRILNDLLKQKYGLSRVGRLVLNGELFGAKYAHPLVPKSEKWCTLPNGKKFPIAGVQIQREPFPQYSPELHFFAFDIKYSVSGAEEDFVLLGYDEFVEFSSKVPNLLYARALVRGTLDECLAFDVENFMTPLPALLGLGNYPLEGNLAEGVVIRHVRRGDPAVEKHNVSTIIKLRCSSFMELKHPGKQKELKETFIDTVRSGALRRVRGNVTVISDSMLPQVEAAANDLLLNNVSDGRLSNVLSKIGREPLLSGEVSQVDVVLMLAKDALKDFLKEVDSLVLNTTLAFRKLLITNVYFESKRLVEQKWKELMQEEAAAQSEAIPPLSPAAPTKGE

[2] = target: T2, TbREL1 K405A (Trypanosoma brucei) (UniProt P86926)
T2 sequence (chain, [35S]-methionine labelled): T1 sequence (chain, [35S]-methionine labelled) with A122K, K361A

[3] = target: T3, TbREL1 K379A (Trypanosoma brucei) (UniProt P86926)
T3 sequence (chain, [35S]-methionine labelled): T1 sequence (chain, [35S]-methionine labelled) with A122K, K335A

[4] = target: T4, TbREL1 E455A (Trypanosoma brucei) (UniProt P86926)
T4 sequence (chain, [35S]-methionine labelled): T1 sequence (chain, [35S]-methionine labelled) with A122K, E411A

Measured: binding

B1: KREPA2 (natural protein)
chain: MYRRFFRSAAVKHLGTTSAQCLMRATKYPCGAMCRNASSCHPQTLGYQQRFQSTTDKKFHCSVCKKPFRLEMAAKLHLQQAHGGDGSVEAGPGPGVEASSVNVVSTPVPSPISPVERTFVDEEERRPRRMRPTPKPLHQPDRDIPAAAMEEMLGVWDKIGLNRLEGNFVHSTMVMKVFAAPPDVSEIPLYEHVAPEGENPFDSLDHMTTGTVDATYVGHDAFAEVDLVDPFVAAPDQTLNPFRAGKVRNPFTRISPTQREVVKPLQPPQPKEEPLKAPVTPFGQLPMFGQTREPSASFAAAAVSVQAAANPNEVSSPFAAAVSSSPFVGQVASPFAPAQDVAGSPFEASPCAASSPFVTAGGQETSPFAAPSTPASFGQGSLFPPMGTGAPGFTAITETEQRQQELEHGCPTCGKKFSTFEGAAMHSKSKHGIVLESKKVKDRLNRKGVPDLPAYVPSPVDLSSTSPFGTRSAIGASWAETELIPHAQCVSNITIVGRVLDVSQASENVSHVTVFVEGERSGEEETLTLCCFGEVSQKIRGTLKRNATIFASGTLRLHPVYEASNNKYYVSPVVHVSMPTGTLAVIT
modifications: [35S]-methionine labelled
notes: KREPA2 of T. brucei, the KREPA2 open reading frame, expressed untagged (63 kDa); source: in vitro translated (TNT reticulocyte lysate coupled transcription and translation system, Promega)
binds: all assays above
